Reference: publication PMC10778422, “PI3Kδ Inhibition Potentiates Glucocorticoids in B-lymphoblastic Leukemia by Decreasing Receptor Phosphorylation and Enhancing Gene Regulation”
The exact form of at least one protein or probe is not confirmed. The direction of at least one scale is not stated here. Where a protein sequence is shown, tags need not be part of it.

How the values were obtained:
[1] = target: T1, GR-AF1-DBD-1P (S226P) (Homo sapiens) (UniProt P04150); assay: EMSA; conditions: phosphorylated 1P (pS226), p < 0.0001, Kd plotted in figure only, 5 mM Mg2+; EMSA: 20 mM Tris-HCl pH 8.0, 150 mM KCl, 10% glycerol, 5 mM MgCl2, 1 mM DTT, 1 mM EDTA, 200 ng/uL BSA, 40 ng/uL salmon sperm DNA; dsDNA diluted to 10 nM in this buffer; recombinant protein; residues 27-506; label: Cy5; scale: fold inhibition of affinity vs unmodified and 6P
T1 sequence (looked up): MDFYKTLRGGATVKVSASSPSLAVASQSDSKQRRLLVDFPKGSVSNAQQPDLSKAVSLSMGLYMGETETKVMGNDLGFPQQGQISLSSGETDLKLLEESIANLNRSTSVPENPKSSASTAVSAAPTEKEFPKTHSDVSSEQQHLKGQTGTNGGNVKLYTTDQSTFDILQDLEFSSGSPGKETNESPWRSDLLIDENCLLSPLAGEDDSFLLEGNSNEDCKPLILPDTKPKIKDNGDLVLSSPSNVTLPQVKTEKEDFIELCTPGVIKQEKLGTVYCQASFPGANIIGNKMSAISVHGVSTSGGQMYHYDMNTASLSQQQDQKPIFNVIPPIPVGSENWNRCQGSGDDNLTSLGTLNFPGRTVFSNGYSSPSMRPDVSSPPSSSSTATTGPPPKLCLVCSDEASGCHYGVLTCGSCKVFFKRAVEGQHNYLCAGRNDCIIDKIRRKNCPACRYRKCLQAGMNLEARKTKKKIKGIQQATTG

[2] = target: T2, GR-AF1-DBD-6P (Homo sapiens) (UniProt P04150); assay: EMSA; conditions: phosphorylated 6P, p = 0.0036, Kd plotted in figure only, 5 mM Mg2+; EMSA: 20 mM Tris-HCl pH 8.0, 150 mM KCl, 10% glycerol, 5 mM MgCl2, 1 mM DTT, 1 mM EDTA, 200 ng/uL BSA, 40 ng/uL salmon sperm DNA; dsDNA diluted to 10 nM in this buffer; recombinant protein; residues 27-506; label: Cy5
T2 sequence (looked up): T1 sequence (looked up)

Sequence: GTACGGAACATCGTGTACTGTAC (double strand) [consensus GR site]
- binding signal [1]: 3
- binding signal (% inhibition of affinity vs unmodified) [2]: 50
